{"source": "paper doi:10.1101/2022.03.29.486267", "binders": {"B1": {"name": "CheY-mRFP (protein, UniProt P0AE67 1-129)", "chain": "MADKELKFLVVDDFSTMRRIVRNLLKELGFNNVEEAEDGVDALNKLQAGGYGFVISDWNMPNMDGLELLKTIRADGAMSALPVLMVTAEAKKENIIAAAQAGASGYVVKPFTAATLEEKLNKIFEKLGM", "modifications": "phosphorylated by CheA (residue not given)"}}, "biological_target": "T1, CheZ-mYFP (E. coli) (UniProt P0A9H9)", "T1 sequence": "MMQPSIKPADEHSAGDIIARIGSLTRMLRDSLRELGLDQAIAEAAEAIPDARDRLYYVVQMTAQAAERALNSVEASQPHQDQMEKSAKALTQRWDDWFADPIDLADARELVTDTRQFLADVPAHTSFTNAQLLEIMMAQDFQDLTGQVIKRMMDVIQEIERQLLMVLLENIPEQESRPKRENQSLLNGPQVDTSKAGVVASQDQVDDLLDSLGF", "assay": "FRET or BRET", "note": "No constants are given. Whether binding was seen depends on the method and setting. Binding seen in cells or lysates may run through a third protein. Some entries that bind do so weakly or less than the wild type. Tags and fused reporters may be left off the sequences shown."}
{"binder": "B1", "values": [{"measurement": "binding", "value": "binds"}]}
